Data source: PubChem BioAssay AID504791 (Drosophila RNAi Screening Center, 2011)

Assay: 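Genes whose knock-down strengthens or weakens small-RNA reporter silencing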 (primary screen)
Cell system: Drosophila S2-derived reporter cells
Reagents: long dsRNA against Drosophila genes, about 150-250 ng dsRNA per well (siRNA assay); about 80-120 ng (miRNA assay)
Timing: about 5 days (siRNA assay); about 4 days (miRNA assay)
Conditions: copper sulfate induction of reporters: 25 µM (siRNA assay); 200 mM stated (miRNA assay), 1-2 days before reading
Measured: 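Dual luciferase assay: Renilla to firefly signal ratio in each well, scaled to the mean ratio of its plate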
Call rule: 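First-pass picks had plate-scaled ratios over 1.5 for the siRNA assay, over 1.6 for the miRNA assay, or under 0.6; two distinct dsRNAs had to score alike on retest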
The screen tested about 23,000 reagents; this is a random part of those that have a named target and a result. Over the whole deposit, 199 (0.86%) were called active. 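Plate-scaled ratios behind the calls are not deposited; printed light signals are raw; many rows marked increased or decreased are still called inactive.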 Entries without a mark were called inactive. Not stated in the record: the direction of the score.

Which result is listed for CG12229 [DRSC09868]?
stable assay Renilla, run 1 (luminescence): 8324; stable assay firefly, run 1 (luminescence): 3.72e5

With hep [DRSC19839], how do the results read?
stable assay Renilla, run 1 (luminescence): 6210; stable assay firefly, run 1 (luminescence): 3.61e5

How did the screen score hep [DRSC20337]?
stable assay Renilla, run 1 (luminescence): 5511; stable assay firefly, run 1 (luminescence): 3.73e5

Which result is listed for CG6675 [DRSC03735]?
stable assay Renilla, run 1 (luminescence): 6343; stable assay firefly, run 1 (luminescence): 4.01e5

For CG33552 [DRSC01551], how do the results read?
stable assay Renilla, run 1 (luminescence): 6007; stable assay firefly, run 1 (luminescence): 4.95e5

With Bulli [DRSC10974], what was measured?
stable assay Renilla, run 1 (luminescence): 5618; stable assay firefly, run 1 (luminescence): 3.28e5

For Tbcd [DRSC00273], what was measured?
stable assay Renilla, run 1 (luminescence): 9295; stable assay firefly, run 1 (luminescence): 4.43e5

For CG10681 [DRSC09777], how do the results read?
stable assay Renilla, run 1 (luminescence): 7495; stable assay firefly, run 1 (luminescence): 4.40e5

For CG10681 [DRSC21484], what was measured?
stable assay Renilla, run 1 (luminescence): 7862; stable assay firefly, run 1 (luminescence): 4.63e5

With CG11052 [DRSC14288], what was measured?
stable assay Renilla, run 1 (luminescence): 6743; stable assay firefly, run 1 (luminescence): 4.86e5

What is on record for Neu2 [DRSC11819]?
stable assay Renilla, run 1 (luminescence): 7604; stable assay firefly, run 1 (luminescence): 4.68e5

What is on record for Usp2 [DRSC20590]?
stable assay Renilla, run 1 (luminescence): 5151; stable assay firefly, run 1 (luminescence): 3.69e5

For Usp2 [DRSC20632], what was measured?
stable assay Renilla, run 1 (luminescence): 7059; stable assay firefly, run 1 (luminescence): 4.89e5

For Usp2 [DRSC20633], how do the results read?
stable assay Renilla, run 1 (luminescence): 5172; stable assay firefly, run 1 (luminescence): 3.42e5

With CG14194 [DRSC19549], what does the deposit list?
stable assay Renilla, run 1 (luminescence): 6416; stable assay firefly, run 1 (luminescence): 4.70e5

For Cbp53E [DRSC07356], how do the results read?
stable assay Renilla, run 1 (luminescence): 10725; stable assay firefly, run 1 (luminescence): 4.11e5

For CG5377 [DRSC15783], what does the deposit list?
stable assay Renilla, run 1 (luminescence): 7889; stable assay firefly, run 1 (luminescence): 3.64e5

With CG11970 [DRSC14157], what was measured?
stable assay Renilla, run 1 (luminescence): 8920; stable assay firefly, run 1 (luminescence): 6.15e5

With Cyp4g1 [DRSC18459], how do the results read?
stable assay Renilla, run 1 (luminescence): 8539; stable assay firefly, run 1 (luminescence): 4.29e5

Which result is listed for CG10973 [DRSC09813]?
stable assay Renilla, run 1 (luminescence): 8164; stable assay firefly, run 1 (luminescence): 3.52e5

How did the screen score Tsp39D [DRSC03099]?
stable assay Renilla, run 1 (luminescence): 6051; stable assay firefly, run 1 (luminescence): 2.94e5

What did the screen give for CG7483 [DRSC16249]?
stable assay Renilla, run 1 (luminescence): 7095; stable assay firefly, run 1 (luminescence): 5.29e5

For CG7483 [DRSC22432], what does the deposit list?
stable assay Renilla, run 1 (luminescence): 8110; stable assay firefly, run 1 (luminescence): 5.13e5

How did the screen score CG3734 [DRSC15509]?
stable assay Renilla, run 1 (luminescence): 7064; stable assay firefly, run 1 (luminescence): 2.97e5

How did the screen score CG11584 [DRSC19408]?
stable assay Renilla, run 1 (luminescence): 5514; stable assay firefly, run 1 (luminescence): 5.24e5

For EMC4 [DRSC11638], what does the deposit list?
stable assay Renilla, run 1 (luminescence): 7091; stable assay firefly, run 1 (luminescence): 4.90e5

With Cpsf160 [DRSC05968], how do the results read?
stable assay Renilla, run 1 (luminescence): 8199; stable assay firefly, run 1 (luminescence): 4.89e5

With CG10600 [DRSC02074], what does the deposit list?
stable assay Renilla, run 1 (luminescence): 6646; stable assay firefly, run 1 (luminescence): 1.44e6

Which result is listed for CG16756 [DRSC18115]?
stable assay Renilla, run 1 (luminescence): 6071; stable assay firefly, run 1 (luminescence): 5.42e5

For CG14316 [DRSC14795], what was measured?
stable assay Renilla, run 1 (luminescence): 6862; stable assay firefly, run 1 (luminescence): 3.54e5

For Idgf2 [DRSC03350], what does the deposit list?
stable assay Renilla, run 1 (luminescence): 22332; stable assay firefly, run 1 (luminescence): 1.40e6

What did the screen give for CG8060 [DRSC07064]?
stable assay Renilla, run 1 (luminescence): 9147; stable assay firefly, run 1 (luminescence): 4.27e5

With CG13577 [DRSC04213], what does the deposit list?
stable assay Renilla, run 1 (luminescence): 5502; stable assay firefly, run 1 (luminescence): 3.66e5

What did the screen give for CG11322 [DRSC02142]?
stable assay Renilla, run 1 (luminescence): 8099; stable assay firefly, run 1 (luminescence): 4.51e5

How did the screen score Nup44A [DRSC07248]?
stable assay Renilla, run 1 (luminescence): 6198; stable assay firefly, run 1 (luminescence): 3.59e5
